{
  "source": "patent US20180078476A1",
  "about": "“Method of Increasing Uptake of Washfastness of Hair Health Compounds” (The Procter & Gamble Company, priority 2016, published 2018)",
  "data": [
    {"test": "Uptake of compounds by hair from aqueous solution (UPLC before and after treatment)", "conditions": "5-10 mL of aq. 0.1-0.2 wt % solution, pH 7, shaken with 1 g of hair for 5 minutes; concentration by UPLC before and after", "units": {"% Uptake": "%"}, "values": [
      {"compound": "O=C(O)c1cccnc1", "note": "[A, reference compound]", "% Uptake": 0},
      {"compound": "NC(=O)c1cccnc1", "note": "[B, reference compound]", "% Uptake": 9},
      {"compound": "NCCCNC(=O)c1cccnc1", "note": "[C]", "% Uptake": 20},
      {"compound": "C[N+](C)(CCCN)CCCNC(=O)c1cccnc1", "note": "[D]", "% Uptake": 49},
      {"compound": "CC(C)(CO)[C@@H](O)C(=O)NCCC(=O)NCc1ccc(O)cc1", "note": "[Example E, reference compound]", "% Uptake": 0},
      {"compound": "C[n+]1ccc(CNC(=O)CCNC(=O)[C@H](O)C(C)(C)CO)cc1.[Br-]", "note": "[F]", "% Uptake": 2},
      {"compound": "CC(C)(CO)[C@@H](O)C(=O)NCCC(=O)NCc1cc[n+](CCCN)cc1.[Br-]", "note": "[G, reference compound]", "% Uptake": 13},
      {"compound": "Cc1c(C)c2c(c(C)c1O)CC[C@@](C)(C(=O)O)O2", "note": "[H]", "% Uptake": 0},
      {"compound": "Cc1c(C)c2c(c(C)c1O)CC[C@@](C)(C(=O)NCCCN(C)C)O2", "note": "[I]", "% Uptake": 44.4}
    ]}
  ]
}
